Experimental findings from PMC11191887, “Abstracts From the First Annual Research Day Hosted by the Michigan State University College of Osteopathic Medicine, Novi, Michigan, May 15, 2023” (Spartan Medical Research Journal, 2024) are described below.

Chains of the proteins cited; added tags and fusions are not shown. Lines headed by an entry give the natural chain unless they say otherwise; changes in a name come on top.
UniProt Q13873: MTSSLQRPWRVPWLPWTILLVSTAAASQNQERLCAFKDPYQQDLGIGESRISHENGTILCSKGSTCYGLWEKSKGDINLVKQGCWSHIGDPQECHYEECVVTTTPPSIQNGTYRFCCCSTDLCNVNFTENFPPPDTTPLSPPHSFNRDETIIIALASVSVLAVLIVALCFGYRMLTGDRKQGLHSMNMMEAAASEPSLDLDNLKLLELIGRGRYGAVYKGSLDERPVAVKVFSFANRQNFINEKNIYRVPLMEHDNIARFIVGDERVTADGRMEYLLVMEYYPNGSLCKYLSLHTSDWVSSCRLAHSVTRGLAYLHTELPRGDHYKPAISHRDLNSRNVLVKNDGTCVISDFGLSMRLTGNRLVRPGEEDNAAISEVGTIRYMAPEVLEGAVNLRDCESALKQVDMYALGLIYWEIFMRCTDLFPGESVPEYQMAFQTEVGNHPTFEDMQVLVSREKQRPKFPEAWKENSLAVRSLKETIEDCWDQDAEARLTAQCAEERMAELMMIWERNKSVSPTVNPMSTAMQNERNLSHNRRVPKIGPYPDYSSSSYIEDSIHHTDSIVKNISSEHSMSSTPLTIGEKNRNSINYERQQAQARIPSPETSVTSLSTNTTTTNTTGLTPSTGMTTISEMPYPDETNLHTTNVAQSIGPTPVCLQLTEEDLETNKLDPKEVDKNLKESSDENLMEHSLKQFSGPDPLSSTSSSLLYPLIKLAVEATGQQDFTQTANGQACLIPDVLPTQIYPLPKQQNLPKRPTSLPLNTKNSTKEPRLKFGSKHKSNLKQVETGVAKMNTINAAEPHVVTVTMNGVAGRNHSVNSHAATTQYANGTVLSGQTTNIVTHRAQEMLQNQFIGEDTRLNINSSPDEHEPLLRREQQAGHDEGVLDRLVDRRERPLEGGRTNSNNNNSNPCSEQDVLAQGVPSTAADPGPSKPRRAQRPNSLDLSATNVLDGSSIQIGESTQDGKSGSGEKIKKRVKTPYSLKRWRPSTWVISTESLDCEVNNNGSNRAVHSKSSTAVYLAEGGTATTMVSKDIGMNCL
UniProt P27037: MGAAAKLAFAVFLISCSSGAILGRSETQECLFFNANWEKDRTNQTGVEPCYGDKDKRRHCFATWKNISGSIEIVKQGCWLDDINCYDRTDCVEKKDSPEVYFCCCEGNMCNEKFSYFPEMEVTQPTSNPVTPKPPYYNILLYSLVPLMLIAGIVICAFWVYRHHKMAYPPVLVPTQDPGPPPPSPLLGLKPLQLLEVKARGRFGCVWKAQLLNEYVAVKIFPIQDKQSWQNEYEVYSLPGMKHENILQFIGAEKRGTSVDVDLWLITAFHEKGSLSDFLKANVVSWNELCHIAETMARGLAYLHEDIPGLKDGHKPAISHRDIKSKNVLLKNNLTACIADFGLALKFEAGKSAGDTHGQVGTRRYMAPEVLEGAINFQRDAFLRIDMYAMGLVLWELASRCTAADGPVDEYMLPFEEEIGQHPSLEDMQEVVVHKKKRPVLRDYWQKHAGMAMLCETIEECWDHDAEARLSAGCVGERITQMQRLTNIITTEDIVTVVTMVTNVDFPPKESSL
UniProt Q13705: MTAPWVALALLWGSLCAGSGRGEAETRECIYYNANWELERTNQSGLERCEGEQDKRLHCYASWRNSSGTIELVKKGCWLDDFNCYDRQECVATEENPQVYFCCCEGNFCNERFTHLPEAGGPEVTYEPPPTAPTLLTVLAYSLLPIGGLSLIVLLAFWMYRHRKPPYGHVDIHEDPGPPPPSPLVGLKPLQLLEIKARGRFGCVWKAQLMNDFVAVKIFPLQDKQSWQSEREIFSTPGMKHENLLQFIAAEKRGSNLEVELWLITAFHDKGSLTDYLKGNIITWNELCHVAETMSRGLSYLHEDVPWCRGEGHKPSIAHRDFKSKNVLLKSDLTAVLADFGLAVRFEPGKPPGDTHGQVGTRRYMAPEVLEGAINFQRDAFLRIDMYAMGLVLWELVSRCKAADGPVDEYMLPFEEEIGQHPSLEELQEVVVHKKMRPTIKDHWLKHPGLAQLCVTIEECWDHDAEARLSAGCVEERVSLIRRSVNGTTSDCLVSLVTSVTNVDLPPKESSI

These are yes or no findings as the source states them, for the method shown. A result given as binding can be weak or reduced; the word gives no strength.

Some targets named below: BMPR2 (UniProt Q13873); ActRIIA (UniProt P27037); ActRIIB (UniProt Q13705).
What all share (assay): SPR; receptor-growth factor interaction; both purified
On the technique in general: Surface plasmon resonance follows binding to a sensor surface in real time, without labels.

B1: BMP10 (ligand, UniProt O95393 317-424)
chain: NAKGNYCKRTPLYIDFKEIGWDSWIIAPPGYEAYECRGVCNYPLAEHLTPTKHAIIQALVHLKNSQKASKACCVPTKLEPISILYLDKGVVTYKFKYEGMAVSECGCR
B1: the binding entry with BMPR2, in the assay with ActRIIA and with ActRIIB was “binds” in each case.

B2: BMP9 (ligand, UniProt Q9UK05 320-429)
chain: SAGAGSHCQKTSLRVNFEDIGWDSWIIAPKEYEAYECKGGCFFPLADDVTPTKHAIVQTLVHLKFPTKVGKACCVPTKLSPISVLYKDDMGVPTLKYHYEGMSVAECGCR
With B2, the binding result in the assay with BMPR2 and in the assay with ActRIIA was “binds” throughout.
